Reference: doi:10.1101/2025.05.27.656518
No constants are given. Whether binding was seen depends on the method and setting. In cells and extracts the contact can be indirect. Binding calls can cover weak binding; strength is not graded here.

Molecular target: HIV-1-derived Gag (wild type), C-terminally tagged (HIV-1)
Assay: co-IP

B1: ubiquitin-specific protease 8 (USP8) (enzyme, UniProt P40818 1-1118)
chain: MPAVASVPKELYLSSSLKDLNKKTEVKPEKISTKSYVHSALKIFKTAEECRLDRDEERAYVLYMKYVTVYNLIKKRPDFKQQQDYFHSILGPGNIKKAVEEAERLSESLKLRYEEAEVRKKLEEKDRQEEAQRLQQKRQETGREDGGTLAKGSLENVLDSKDKTQKSNGEKNEKCETKEKGAITAKELYTMMTDKNISLIIMDARRMQDYQDSCILHSLSVPEEAISPGVTASWIEAHLPDDSKDTWKKRGNVEYVVLLDWFSSAKDLQIGTTLRSLKDALFKWESKTVLRNEPLVLEGGYENWLLCYPQYTTNAKVTPPPRRQNEEVSISLDFTYPSLEESIPSKPAAQTPPASIEVDENIELISGQNERMGPLNISTPVEPVAASKSDVSPIIQPVPSIKNVPQIDRTKKPAVKLPEEHRIKSESTNHEQQSPQSGKVIPDRSTKPVVFSPTLMLTDEEKARIHAETALLMEKNKQEKELRERQQEEQKEKLRKEEQEQKAKKKQEAEENEITEKQQKAKEEMEKKESEQAKKEDKETSAKRGKEITGVKRQSKSEHETSDAKKSVEDRGKRCPTPEIQKKSTGDVPHTSVTGDSGSGKPFKIKGQPESGILRTGTFREDTDDTERNKAQREPLTRARSEEMGRIVPGLPSGWAKFLDPITGTFRYYHSPTNTVHMYPPEMAPSSAPPSTPPTHKAKPQIPAERDREPSKLKRSYSSPDITQAIQEEEKRKPTVTPTVNRENKPTCYPKAEISRLSASQIRNLNPVFGGSGPALTGLRNLGNTCYMNSILQCLCNAPHLADYFNRNCYQDDINRSNLLGHKGEVAEEFGIIMKALWTGQYRYISPKDFKITIGKINDQFAGYSQQDSQELLLFLMDGLHEDLNKADNRKRYKEENNDHLDDFKAAEHAWQKHKQLNESIIVALFQGQFKSTVQCLTCHKKSRTFEAFMYLSLPLASTSKCTLQDCLRLFSKEEKLTDNNRFYCSHCRARRDSLKKIEIWKLPPVLLVHLKRFSYDGRWKQKLQTSVDFPLENLDLSQYVIGPKNNLKKYNLFSVSNHYGGLDGGHYTAYCKNAARQRWFKFDDHEVSDISVSSVKSSAAYILFYTSLGPRVTDVAT
binding: binds
